# Source: the supplement of paper PMC8728848
# The other results are listed elsewhere or left out.
# B1: PX14343C-bfa-541-26-541 (Bacteroides fragilis) (protein)
# chain: KAPLDEIADDSFWSDETLVKYYVNDLYSEISVDGLQLQENRSDNSVSAQRDKYRASWFKFNYDMVSASDPQDDDVWEDYYVKVRKCNRFFERIGTSTIEESEKSRLTGEVHFLRAMFYFEMVKRYGGVILLDKVLTMEDNWEIPRSSEKECYDFILEDLKKATEMLPASYGSREKGRATKGAAYALKSRVELYDKRYEDVIKSCAEVYKLGYELVDGTTPEKYRSIWWTTNKDNKEIIFDVQYKSPDVYNNMMVCNMVTYINDKYGDRGWGGLGPTQELIDAFEMADGTPATQYSQAPADQVFDINTCGIYEGREPRFYANIVFHGSQIFFNADKGAVTVDRYLMDTPDKGDGSLTGYNVWKWIDYDNYNYPYAGAGSPDFSTNWIILRYAEIYLNDAEARLETGDVEGARKAVNMIRQRVGLPDLTESDPEKLRELIRKERRIEFAFEEQRFYDVRRWKIGPETQTTLHGVRFVSPTEFKVTKTDIRTWNDRLYLTPVPHDEIVRSSVLKQNLGY
# Columns and labels:
# Test in all cases: glycan array binding signal (z-score within array); higher = stronger binding
# Details in all cases: glycan notation: IUPAC condensed, linker removed
# [1] = biological target: Fuc(a1-3)[Gal(b1-4)]GlcNAc(b1-3)Gal(b1-4)[Fuc(a1-3)]GlcNAc
# In short: (§1)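 The binding signal is a Z-score computed within each array. Data were drawn from 3228 arrays in the Consortium for Functional Glycomics database, restricted to those with a known protein sequence. Scores were averaged over arrays of the same protein sequence at different concentrations or buffers, and over linkers, and negative values can be taken as non-binding.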
# [2] = biological target: Fuc(a1-3)[Gal(b1-4)]GlcNAc(b1-3)Gal(b1-4)[Fuc(a1-3)]GlcNAc(b1-3)Gal(b1-4)[Fuc(a1-3)]GlcNAc
# In short: as §1
# [3] = biological target: Fuc(a1-3)[Gal(b1-4)]GlcNAc(b1-3)GalNAc
# In short: as §1
# [4] = biological target: Fuc(a1-3)[Gal(b1-4)]GlcNAc(b1-6)GalNAc
# In short: as §1
# [5] = biological target: Fuc(a1-3)[Gal(b1-4)]GlcNAc(b1-6)[Gal(b1-3)GlcNAc(b1-3)]Gal(b1-4)Glc
# In short: as §1
# [6] = biological target: Fuc(a1-3)[Gal(b1-4)]GlcNAc6S
# In short: as §1
# [7] = biological target: Fuc(a1-3)[Gal3S(b1-4)]Glc
# In short: as §1
# [8] = biological target: Fuc(a1-3)[Gal3S(b1-4)]GlcNAc
# In short: as §1
# [9] = biological target: Fuc(a1-3)[Gal3S(b1-4)]GlcNAc6S
# In short: as §1
# [10] = biological target: Fuc(a1-3)[GalNAc(b1-4)]GlcNAc
# In short: as §1
# [11] = biological target: Fuc(a1-3)[GalNAc(b1-4)]GlcNAc6S
# In short: as §1
# Fuc(a1-4)GlcNAc = biological target: Fuc(a1-4)GlcNAc
# In short: as §1
# Fuc(b1-3)GlcNAc = biological target: Fuc(b1-3)GlcNAc
# In short: as §1
# Gal(a1-2)Gal = biological target: Gal(a1-2)Gal
# In short: as §1
# Gal(a1-3)Gal = biological target: Gal(a1-3)Gal
# In short: as §1
# Gal(a1-3)Gal(b1-3)GlcNAc = biological target: Gal(a1-3)Gal(b1-3)GlcNAc
# In short: as §1
# [12] = biological target: Gal(a1-3)Gal(b1-3)GlcNAc(b1-2)Man
# In short: as §1
# [13] = biological target: Gal(a1-3)Gal(b1-3)GlcNAc(b1-2)Man(a1-3)[Gal(a1-3)Gal(b1-3)GlcNAc(b1-2)Man(a1-6)]Man(b1-4)GlcNAc(b1-4)GlcNAc
# In short: as §1
# [14] = biological target: Gal(a1-3)Gal(b1-3)GlcNAc(b1-3)GalNAc
# In short: as §1
# [15] = biological target: Gal(a1-3)Gal(b1-3)GlcNAc(b1-6)GalNAc
# In short: as §1
# [16] = biological target: Gal(a1-3)Gal(b1-3)[Fuc(a1-4)]GlcNAc(b1-2)Man(a1-3)[Gal(a1-3)Gal(b1-3)[Fuc(a1-4)]GlcNAc(b1-2)Man(a1-6)]Man(b1-4)GlcNAc(b1-4)GlcNAc
# In short: as §1
# Gal(a1-3)Gal(b1-4)Glc = biological target: Gal(a1-3)Gal(b1-4)Glc
# In short: as §1
# Gal(a1-3)Gal(b1-4)GlcNAc = biological target: Gal(a1-3)Gal(b1-4)GlcNAc
# In short: as §1
# [17] = biological target: Gal(a1-3)Gal(b1-4)GlcNAc(b1-2)Man
# In short: as §1
# [18] = biological target: Gal(a1-3)Gal(b1-4)GlcNAc(b1-2)Man(a1-3)[Gal(a1-3)Gal(b1-4)GlcNAc(b1-2)Man(a1-6)]Man(b1-4)GlcNAc(b1-4)GlcNAc
# In short: as §1
# [19] = biological target: Gal(a1-3)Gal(b1-4)GlcNAc(b1-3)GalNAc
# In short: as §1
# [20] = biological target: Gal(a1-3)Gal(b1-4)GlcNAc(b1-6)GalNAc
# In short: as §1
# [21] = biological target: Gal(a1-3)Gal(b1-4)[Fuc(a1-3)]GlcNAc
# In short: as §1
# [22] = biological target: Gal(a1-3)Gal(b1-4)[Fuc(a1-3)]GlcNAc(b1-2)Man(a1-3)[Gal(a1-3)Gal(b1-4)[Fuc(a1-3)]GlcNAc(b1-2)Man(a1-6)]Man(b1-4)GlcNAc(b1-4)GlcNAc
# In short: as §1
# Gal(a1-3)GalNAc = biological target: Gal(a1-3)GalNAc
# In short: as §1
# [23] = biological target: Gal(a1-3)[Gal(a1-4)]Gal(b1-4)GlcNAc
# In short: as §1
# [24] = biological target: Gal(a1-4)Gal(b1-3)GlcNAc(b1-2)Man(a1-3)[Gal(a1-4)Gal(b1-3)GlcNAc(b1-2)Man(a1-6)]Man(b1-4)GlcNAc(b1-4)GlcNAc
# In short: as §1
# Gal(a1-4)Gal(b1-4)Glc = biological target: Gal(a1-4)Gal(b1-4)Glc
# In short: as §1
# Gal(a1-4)Gal(b1-4)GlcNAc = biological target: Gal(a1-4)Gal(b1-4)GlcNAc
# In short: as §1
# [25] = biological target: Gal(a1-4)Gal(b1-4)GlcNAc(b1-2)Man(a1-3)[Gal(a1-4)Gal(b1-4)GlcNAc(b1-2)Man(a1-6)]Man(b1-4)GlcNAc(b1-4)GlcNAc
# In short: as §1
# [26] = biological target: Gal(a1-4)Gal(b1-4)GlcNAc(b1-3)Gal(b1-4)Glc
# In short: as §1
# Gal(a1-4)GlcNAc = biological target: Gal(a1-4)GlcNAc
# In short: as §1
# Gal(a1-6)Glc = biological target: Gal(a1-6)Glc
# In short: as §1
binder,measurement,setting,value
B1,glycan array binding signal (z-score),[1],0.118
same,glycan array binding signal (z-score),[2],-0.455
same,glycan array binding signal (z-score),[3],0.824
same,glycan array binding signal (z-score),[4],0.956
same,glycan array binding signal (z-score),[5],-0.383
same,glycan array binding signal (z-score),[6],-0.902
same,glycan array binding signal (z-score),[7],-0.316
same,glycan array binding signal (z-score),[8],-0.706
same,glycan array binding signal (z-score),[9],-0.963
same,glycan array binding signal (z-score),[10],0.848
same,glycan array binding signal (z-score),[11],0.249
same,glycan array binding signal (z-score),Fuc(a1-4)GlcNAc,-0.619
same,glycan array binding signal (z-score),Fuc(b1-3)GlcNAc,-0.036
same,glycan array binding signal (z-score),Gal(a1-2)Gal,-0.474
same,glycan array binding signal (z-score),Gal(a1-3)Gal,-0.601
same,glycan array binding signal (z-score),Gal(a1-3)Gal(b1-3)GlcNAc,-0.044
same,glycan array binding signal (z-score),[12],-0.753
same,glycan array binding signal (z-score),[13],0.172
same,glycan array binding signal (z-score),[14],-0.994
same,glycan array binding signal (z-score),[15],0.308
same,glycan array binding signal (z-score),[16],0.905
same,glycan array binding signal (z-score),Gal(a1-3)Gal(b1-4)Glc,-0.559
same,glycan array binding signal (z-score),Gal(a1-3)Gal(b1-4)GlcNAc,7.53
same,glycan array binding signal (z-score),[17],-1.04
same,glycan array binding signal (z-score),[18],2.85
same,glycan array binding signal (z-score),[19],-0.369
same,glycan array binding signal (z-score),[20],-0.277
same,glycan array binding signal (z-score),[21],0.78
same,glycan array binding signal (z-score),[22],1.03
same,glycan array binding signal (z-score),Gal(a1-3)GalNAc,-0.042
same,glycan array binding signal (z-score),[23],0.804
same,glycan array binding signal (z-score),[24],0.351
same,glycan array binding signal (z-score),Gal(a1-4)Gal(b1-4)Glc,1.07
same,glycan array binding signal (z-score),Gal(a1-4)Gal(b1-4)GlcNAc,-0.894
same,glycan array binding signal (z-score),[25],-0.252
same,glycan array binding signal (z-score),[26],-0.346
same,glycan array binding signal (z-score),Gal(a1-4)GlcNAc,-0.445
same,glycan array binding signal (z-score),Gal(a1-6)Glc,-1.09

# Nothing new here: an excerpt of the list.
binder,measurement,setting,value
B1,glycan array binding signal (z-score),[17],-1.04
same,glycan array binding signal (z-score),[18],2.85
same,glycan array binding signal (z-score),[19],-0.369
